This passage reports binding results from PMC11051623.

Chains of the proteins cited; added tags and fusions are not shown.
UniProt F5H9W9: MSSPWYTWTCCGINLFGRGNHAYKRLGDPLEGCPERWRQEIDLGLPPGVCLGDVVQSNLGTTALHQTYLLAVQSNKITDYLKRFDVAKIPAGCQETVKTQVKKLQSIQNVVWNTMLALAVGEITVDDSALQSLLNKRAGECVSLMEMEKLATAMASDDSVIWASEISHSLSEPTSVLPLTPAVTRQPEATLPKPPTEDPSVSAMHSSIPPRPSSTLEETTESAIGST
UniProt F5HAI6: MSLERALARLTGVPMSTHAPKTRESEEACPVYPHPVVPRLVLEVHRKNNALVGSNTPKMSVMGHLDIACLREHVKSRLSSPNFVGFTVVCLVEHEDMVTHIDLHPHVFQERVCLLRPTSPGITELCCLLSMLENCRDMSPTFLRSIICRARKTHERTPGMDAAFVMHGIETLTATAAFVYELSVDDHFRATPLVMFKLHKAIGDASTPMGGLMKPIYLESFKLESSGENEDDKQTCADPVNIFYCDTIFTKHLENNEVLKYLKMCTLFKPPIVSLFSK

These are yes or no findings as the source states them, for the method shown. Binding seen in cells or lysates may run through a third protein. Some results given as binding are weak or reduced against the parent protein; the word gives no strength.

In the test the target is KSHV pORF55, wild type (FLAG-ORF55-GFP) (Kaposi's sarcoma-associated herpesvirus (KSHV)) (UniProt F5H9W9). In words: co-IP; HEK293T cells co-transfected with HA-ORF42 and FLAG-ORF55-GFP or the mutants, lysed 24 h after transfection in 150 mM NaCl, 50 mM Tris-HCl pH 7.4, 1% Triton X-100, 1 mM EDTA; precipitated with anti-FLAG beads at 4°C for 4 h; immunoblotting. (A western blot detects proteins with antibodies after separation by electrophoresis.)

With “KSHV pORF42 (HA-ORF42) (from UniProt F5HAI6 1-278)”, the binding result was “binds”.
